# Experimental data taken from PubChem BioAssay AID1487 (National Center for Advancing Translational Sciences (NCATS), 2009).
# Screen size: about 200,000 compounds; about 25 (0.01%) were called active. This list was built around the results that the source calls inconclusive (neither active nor inactive); the mix of calls is not that of the screen. Calls follow the shape of the dose curve; as a rule, active = well fitted inhibition curve with a large enough effect in the signal ratio, with a control signal flat (not every such curve was filed as active); inconclusive = small, poorly fitted or top-dose-only effect, or effect the other way, or a change in a side signal; inactive = flat fitted curve, though single readings scatter; the % refers to the signal ratio. A potency beside an inconclusive call is a rough fit, not a confirmed value.
# Experiment: qHTS Assay for Modulators of Lamin A Splicing
# Settings: HeLa LMNA splicing GFP/RFP minigene ratio, 48 h; ratio change, negative = inhibition: at 46.1 µM (top of the series) unless noted
# In short: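 S3 HeLa stable clones carrying a lamin A-EGFP splicing minigene plus DsRed2 were seeded at 600 cells/well in Opti-MEM with 2% FBS, pin-dosed and incubated 48 h at 37°C. Acumen cytometry (488 nm) gave the GFP/RFP total-intensity ratio.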
# % is scaled to controls: 0 for no effect and ±100 for the full control effect; potency is read from the fitted curve at half-maximal effect.
Compound,"ratio change, negative = inhibition",Potency
Cc1sc2nc(SCC(=O)N3CCOCC3)[nH]c(=O)c2c1C,inactive: -7.97%,–
O=C(Nc1cccc(-c2nc3cc(Cl)ccc3o2)c1)c1ccc(F)cc1,–,"inconclusive: 35.5 µM [cytotoxic, single point]"
CCOC(=O)c1[nH]c2ccccc2c1NC(=S)Nc1cccc(C)c1C,inactive: 1.03%,–
Cc1ccc2nc(N(CCN(C)C)C(=O)/C=C/c3cccs3)sc2c1,inconclusive: 11.6%,–
O=C(Cn1c(=O)oc2cc(S(=O)(=O)N3CCCC3)ccc21)Nc1ccc(OC(F)(F)F)cc1,inactive: 25% [at 46 µM],–
COc1ccc(Cn2nnc3c(=O)[nH]c(C(=O)NCCc4ccc(F)cc4)nc32)cc1OC,inactive: -11.7%,–
Cc1ccc2nc(-c3ccccn3)cc(C(=O)Nc3ccc(S(=O)(=O)N4CCOCC4)cc3)c2c1,inconclusive: -19.1% [at 46 µM],–
CCN=C1SC(CC(=O)Nc2ccc(C(F)(F)F)cc2)C(=O)N1CC (centres undefined),inactive: -5.69%,–
Cc1ccc(C2CC(C(F)(F)F)n3nc(C(=O)NCc4c(C)nn(C)c4C)c(Cl)c3N2)cc1 (centres undefined),–,"inconclusive: 11.2 µM [fluorescent, partial curve]"
CC(=O)c1ccc(N2CCN(C(=O)c3cc4ccc5cccnc5c4[nH]3)CC2)cc1,inconclusive: -49.8% [at 46 µM],–
O=C(COC(=O)c1ccc(Oc2ccccc2)cc1)Nc1nnc(-c2ccccc2)o1,–,"inconclusive: 35.5 µM [falling, single point]"
COC(=O)C(NC(=O)c1ccco1)(Nc1cc(C)ccn1)C(F)(F)F (centres undefined),inactive: -0.832%,–
Cc1cc(C)c2sc(N(Cc3cccnc3)C(=O)CCOc3ccccc3)nc2c1,–,"inconclusive: 11.2 µM [inhibitor, partial curve, poor fit]"
CC1=CC(C)(C)N(S(=O)(=O)c2ccc(C)cc2)c2ccccc21,inconclusive: -10.2%,–
COC(=O)N1C(C2CC2)=Cc2ccccc2C1CC(C)=O (centres undefined),inactive: -2.61% [at 9.22 µM],–
COC(=O)c1sc2cccc(F)c2c1S(=O)(=O)NCc1ccc(Cl)cc1,inactive: -27.6% [at 46 µM],–
C=CCC1NCCc2c(Br)cccc21 (centres undefined),inconclusive: -26.8% [at 46 µM],–
CCOC(=O)C1CCCN(S(=O)(=O)c2cc3c(cc2C)NC(=O)CO3)C1 (centres undefined),inactive: 0.326% [at 46 µM],–
COc1ccc(N(CC(=O)NCc2ccco2)S(C)(=O)=O)cc1,inactive: 1.99%,–
CCOc1ccc2nc(NC(=O)CS(=O)(=O)c3ccc(C)cc3)sc2c1,inactive: 29.8%,–
COc1cc(NC(=O)CSc2nc3[nH]ncc3c(=O)n2-c2ccccc2C)cc(OC)c1OC,inconclusive: 10.2%,–
Nc1ccc(-c2nc3nc(N)nc(N)c3nc2-c2ccc(N)cc2)cc1,inconclusive: 18.5% [at 46 µM],–
C/C(CC(=O)Nc1ccc(Cl)cc1Cl)=N\NC(=O)C(=O)N1CCCC1,inconclusive: 80.2% [at 46 µM],–
c1cncc(-c2nccc(NCc3cccs3)n2)c1,inconclusive: -9.21%,–
C=C(C)c1cccc(C(C)(C)NC(=O)Nc2ccc(OC)cc2)c1,inconclusive: -21.4% [at 46 µM],–
COc1cccc(NC(=O)Nc2cccc(C(=O)O)c2)c1,inactive: 18.2% [at 46 µM],–
O=C1c2ccccc2NC(c2ccc(Cl)cc2Cl)N1O (centres undefined),–,"inconclusive: 35.5 µM [inhibitor, single point]"

Compound,"ratio change, negative = inhibition",Potency
CCCCCCc1cc2cc(S(=O)(=O)c3ccc(F)c(Cl)c3)c(=O)oc2cc1O,inconclusive: -34.6%,–
CCN(CC)C(=O)Cn1cc(S(=O)(=O)CC(=O)NCc2ccc3c(c2)OCO3)c2ccccc21,inconclusive: 18.7% [at 9.22 µM],–
CC(=O)OCCNc1cc(SCc2ccco2)c2nonc2c1[N+](=O)[O-],inconclusive: -39.7%,–
COc1ccc2nc(C)cc(SCC(=O)N/N=C/c3ccc(O)cc3O)c2c1,–,"inconclusive: 12.6 µM [falling, partial curve, poor fit]"
COC(=O)c1c(NC(=O)CSc2ncnc3c2cnn3-c2ccccc2Cl)sc2c1CCCC2,–,"inconclusive: 12.6 µM [falling, partial curve, poor fit]"
O=c1c2cn[nH]c2nc(SCc2ccccc2F)n1-c1ccc(Br)cc1,inconclusive: -0.866%,–
CNC(=O)Cn1ncc2c(C)n(Cc3ccc(C)cc3)c(C)c2c1=O,inactive: 4.62%,–
Cc1cccc(NCN2C(=O)C3C4C=CC(C4)C3C2=O)c1 (centres undefined),inconclusive: 14.4%,–
CC(C)NC(=O)COC(=O)C1CSC2(c3ccc(Br)cc3)CCC(=O)N12 (centres undefined),inconclusive: 0.519% [at 46 µM],–
O=C(Nc1ccccc1-c1nc2ccccc2[nH]1)c1ccc(S(=O)(=O)N2CCCCC2)cc1,inactive: -6.13%,–
CSc1ccc(CNC(=O)CN2C(=O)C3CCCCN3c3ccc(C(=O)N4CCCC4)cc32)cc1 (centres undefined),inactive: -19.6% [at 46 µM],–
Cc1ccc(C(=O)O)cc1NC(=S)NC(=O)c1ccc(-c2ccccc2)cc1,inconclusive: 36.4% [at 46 µM],–
Cc1cc(C)n(CCN(C)C(=O)CCc2nnc(-c3ccc4c(c3)OCO4)o2)n1,inconclusive: -11.5% [at 46 µM],–
C=CCn1c(SCC(=O)Nc2cccc(C)c2)nnc1-c1cnccn1,inconclusive: 16.3%,–
O=C1c2nccnc2C(=O)N1c1ccc(F)cc1,inconclusive: 30.8% [at 9.22 µM],–
O=C1C2CC=C(Cl)CC2C(=O)N1CCC[n+]1ccccc1 (centres undefined),inactive: -7.72% [at 0.0737 µM],–
COc1ccc(NC(=O)CCNS(=O)(=O)c2cccc3nsnc23)cc1,inconclusive: -17.1% [at 46 µM],–
CCn1c(SCC(=O)c2ccccc2)nnc1-c1cccnc1,inconclusive: 0.95% [at 46 µM],–
CCOc1cc(/C=N/NC(=O)C(=O)NCCCOC(C)C)cc(Br)c1O,inactive: -0.208%,–
O=C(CSc1nnc(COc2cccc3cccnc23)o1)N1CCc2ccccc21,inconclusive: -24.6%,–
CCOC(=O)C1(CCSC)NC(c2ccco2)C2C(=O)N(C)C(=O)C21 (centres undefined),inconclusive: 10.8%,–
Cn1c(CNC(=O)c2ccccc2F)nnc1SCCOc1ccccc1,inconclusive: -20.4% [at 46 µM],–
COc1ccc(C)cc1NC(=O)c1cnc2sccn2c1=O,inconclusive: -12.1%,–
O=C(O/N=C\c1ccc(N2CCOCC2)c([N+](=O)[O-])c1)c1ccc(F)cc1,inactive: 2.49%,–
CCOc1cc(/C=N/N=C2/NC(=O)C(CC(=O)O)S2)ccc1OCc1ccc(Cl)cc1Cl (centres undefined),–,"inconclusive: 35.5 µM [inhibitor, single point]"
COCCN(C(=O)Cc1cccs1)C(C(=O)NC1CCCC1)c1cc(OC)c(OC)c(OC)c1 (centres undefined),inactive: 11.9% [at 46 µM],–
CN(C)/C=N/c1sc2c(c1C#N)CCCC2,inactive: -2.03% [at 46 µM],–

# Part of the list above, as tab-separated lines:
Compound	ratio change, negative = inhibition	Potency
COc1cc(NC(=O)CSc2nc3[nH]ncc3c(=O)n2-c2ccccc2C)cc(OC)c1OC	inconclusive: 10.2%	–
CCOC(=O)C1(CCSC)NC(c2ccco2)C2C(=O)N(C)C(=O)C21 (centres undefined)	inconclusive: 10.8%	–
CCOc1cc(/C=N/N=C2/NC(=O)C(CC(=O)O)S2)ccc1OCc1ccc(Cl)cc1Cl (centres undefined)	–	inconclusive: 35.5 µM [inhibitor, single point]

# Remaining list, next part.

Compound,"ratio change, negative = inhibition",Potency
CC(=O)C1C(=O)c2c(cccc2[N+](=O)[O-])C1=Nc1ccc(S(N)(=O)=O)cc1 (centres undefined),inconclusive: -3.8% [at 46 µM],–
COCCCN(C(=S)Nc1c(C)cc(C)cc1C)C(C)c1ccccn1 (centres undefined),inactive: -4.89% [at 46 µM],–
CCOC(=O)c1c(CN2CCC(C)CC2)oc2ccc(OC)cc12,inconclusive: 4.89%,–
Cc1ccnn1C(C)C(=O)O (centres undefined),inconclusive: -17.9% [at 9.22 µM],–
CCCn1c(SCC(=O)c2cc(C)n(-c3ccc4c(c3)OCO4)c2C)n[nH]c1=O,–,"inconclusive: 11.2 µM [falling, partial curve, poor fit]"
CN1C2CCC1CC(OC(=O)c1c[nH]c3ccccc13)C2 (centres undefined),–,"inconclusive: 1.12 µM [inhibitor, full curve, poor fit]"
CC(=O)NCCNc1ncnc2ccc(-c3ccccc3C#N)cc12,inconclusive: -9.2%,–
O=C(c1ccc(Br)s1)N1CCCC1,inactive: -10.8%,–
CC(N=C1CC(C)(C)CC(=O)/C1=C(/O)CCCN1C(=O)c2ccccc2C1=O)C(=O)O (centres undefined),inconclusive: 8.98% [at 9.22 µM],–
Cc1ccc(S(=O)(=O)N2CCCOC2CNC(=O)C(=O)NCCCn2ccnc2)cc1 (centres undefined),inconclusive: -5.66%,–
Clc1ccccc1-c1ccc2ncnc(NC3CCNCC3)c2c1,inconclusive: -23.2%,–
O=c1c(-c2ccc(Cl)cc2)coc2c(CN3CCOCC3)c(O)ccc12,inconclusive: 5.88%,–
CCNc1nc2nc3ccc(C)cn3c(=O)c2cc1C(=O)NCC1CCCO1 (centres undefined),inconclusive: 2.61% [at 46 µM],–
CCOC(=O)c1cc([N+](=O)[O-])sc1NC(=O)CC,–,"inconclusive: 35.5 µM [cytotoxic, partial curve]"
COc1ccc(NC(=O)/C=C/C(=O)O)cc1Cl,inactive: -5.61%,–
CC1CCn2c(nc3cc(C(=O)NCCc4ccc(Cl)cc4)ccc32)C1 (centres undefined),inconclusive: -13.8% [at 46 µM],–
C=CCn1c(Oc2ccccc2)nc2c1c(=O)n(C)c(=O)n2C,inconclusive: 25.4% [at 46 µM],–
CCc1ccc(-n2nc(C)c3c(C)cc(=O)n(CC(=O)N4CCCc5ccccc54)c32)cc1,inactive: 18.4% [at 46 µM],–
Cc1ccc(-n2c(=O)c3c(C)c(C(=O)N(C)C)sc3n(CC(=O)C(C)(C)C)c2=O)cc1C,inactive: -12.4% [at 46 µM],–
C/C(=N\N=C(N)N)c1cc(Cl)ccc1Cl,inconclusive: -19% [at 46 µM],–
COc1ccccc1NS(=O)(=O)c1cc(NC(=O)CCC(=O)c2cccs2)ccc1Cl,–,"inconclusive: 35.5 µM [fluorescent, single point]"
O=C(O)CCSc1ccc([N+](=O)[O-])cc1[N+](=O)[O-],inactive: -15.6% [at 9.22 µM],–
NC(=O)c1ccc(N2CCN(c3ccc(O)cc3)CC2)c([N+](=O)[O-])c1,inconclusive: -27.6% [at 46 µM],–
COc1ccccc1OCC(=O)NCC(c1ccc(Cl)cc1)N1CCCCC1 (centres undefined),inconclusive: 3.07% [at 46 µM],–
CCOc1ccc(-c2cccc(NS(=O)(=O)c3c(C)cc(C)cc3C)c2)nn1,inconclusive: -15.6% [at 46 µM],–
